Assay results from patent US12686971B2, “Method of controlling enzymatic activities and tools related thereto” (KEMIRA OYJ, priority 2020, dated 2026).

Tests used:
[1] = pH, redox and conductivity of pulp suspension after incubation; details: pasteurized 1 h +80° C., 50 mg/l monochloramine then 10 mg/l daily, 4 d at +40° C., n = 6
[2] = Properties of handsheets prepared from treated pulp
[3] = Example 5, treated compared to non-treated
[4] = handsheet from treated pulp, Example 5 (monochloramine, 4 d)

With `NCl` [MCA, monochloramine] the “Redox, Average” value [1] was 94 mV, the “pH, Average” value [1] was 6.3 and the “SCT higher in the treated sample” value [2, 3] was “about 3.5%”. For the same compound, the “ash content higher in the treated sample” value [2, 3] was “about 8.8%”, the “tear strength higher in the treated sample” value [2, 3] was “more than 9%” and the “tensile strength better in the treated sample” value [2, 3] was “about 12%”. For the same compound, the Ash content [2, 4] was 4.35%, the SCT index [2, 4] was 17.16 Nm/g and the Tear index [2, 4] was 6.84 Nm^2/kg. For the same compound, the Tensile index [2, 4] was 30.92 Nm/g.
